Reference: PMC6642264, “Hydrophobic recognition allows the glycosyltransferase UGT76G1 to catalyze its substrate in two orientations” (Nature Communications, 2019)
Results are given in words; binding and its absence hold for the method and conditions named.

Target: UGT76G1 (S. rebaudiana) (UniProt Q6VAB4)
Experiment: SEC; gel filtration of purified His-tagged UGT76G1; the final gel filtration step was in 10 mM HEPES-NaOH buffer pH 7.2, 150 mM NaCl, 2 mM DTT; both purified

binding: no binding
B1: UGT76G1 (enzyme, UniProt Q6VAB4 1-458)
chain: MENKTETTVRRRRRIILFPVPFQGHINPILQLANVLYSKGFSITIFHTNFNKPKTSNYPHFTFRFILDNDPQDERISNLPTHGPLAGMRIPIINEHGADELRRELELLMLASEEDEEVSCLITDALWYFAQSVADSLNLRRLVLMTSSLFNFHAHVSLPQFDELGYLDPDDKTRLEEQASGFPMLKVKDIKSAYSNWQILKEILGKMIKQTKASSGVIWNSFKELEESELETVIREIPAPSFLIPLPKHLTASSSSLLDHDRTVFQWLDQQPPSSVLYVSFGSTSEVDEKDFLEIARGLVDSKQSFLWVVRPGFVKGSTWVEPLPDGFLGERGRIVKWVPQQEVLAHGAIGAFWTHSGWNSTLESVCEGVPMIFSDFGLDQPLNARYMSDVLKVGVYLENGWERGEIANAIRRVMVDEEGEYIRQNARVLKQKADVSLMKGGSSYESLESLVSYISSL
